Data set [1] is described as follows: general procedure: Fmoc solid-phase peptide synthesis; Rink Amide AM resin (0.64 or 0.74 mmol/g; NovaBiochem); HBTU/HOBt/DIEA. The following applies: whole synthesis, λ=215 nm, scale of the general procedure 0.25 mmol.
The nature of data set [2]: general procedure: Fmoc solid-phase peptide synthesis; Rink Amide AM; HBTU/HOBt/DIEA. The following applies: whole synthesis, scale 0.125 mmol.

For the substance “Ala-Glu-Gly-Glu-Phe-(cyclo-[Dpr-N^β(CH2CO)-Arg-Val-Lys-Ile-Asp-Gly-Arg-Pro-Met-Cys])-Gly-Glu-Glu-Glu-Cys-NH2”, the “final HPLC purity” value in data set [1] amounted to 90%. For the substance “cyclo-[CH2CO-Arg-Val-Lys-Ile-Asp-Gly-Arg-Pro-Met-Cys]-Gly-Glu-Glu-Glu-Cys-NH2”, in data set [1], the “final HPLC purity” value was 95%. Also, the isolated mass in data set [2] was 81 mg. Take “cyclo-[CH2CO-Lys-Arg-Gly-Val-Ile-Asp-Pro-Met-Arg-Cys]-Gly-Glu-Glu-Glu-Cys-NH2”: in data set [1], the “final HPLC purity” value is on record as 99%.

Values taken from patent US20060135434 (published 2006).
